Experimental data taken from EP1484405A1.
These are yes or no findings as the source states them, for the method shown. Some results given as binding are weak or reduced against the parent protein; the word gives no strength.

The chains behind the UniProt entries cited, without tags or fusion partners. Where a name states a change or a piece, a line headed by the entry shows the natural chain unless it says otherwise.
UniProt P0A511: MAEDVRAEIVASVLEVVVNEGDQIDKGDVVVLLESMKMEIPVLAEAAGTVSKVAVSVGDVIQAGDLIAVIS

Target: native CFP7A of M. tuberculosis (Mycobacterium tuberculosis) (UniProt P0A511)
Assay: streptavidin blot after SDS-PAGE and transfer to nitrocellulose

## alkaline phosphatase conjugated streptavidin (from UniProt P22629 37-163)
  binding: binds
